The list shows a part of the results.
Assays:
Assay in all cases: glycan array binding signal (z-score within array); higher = stronger binding
Conditions in all cases: glycan notation: IUPAC condensed, linker removed
[1] = target: Fuc(a1-2)Gal(b1-4)GlcNAc(b1-6)GalNAc
Procedure, shortened: (§1)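 The binding signal is a Z-score computed within each array and averaged over linkers. Arrays of the same protein sequence at different concentrations or buffers were also averaged together. Data originate from 3228 arrays in the Consortium for Functional Glycomics database, kept only where the protein sequence was available.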

[2] = target: Fuc(a1-2)Gal(b1-4)GlcNAc6S
Procedure, shortened: as §1

[3] = target: Fuc(a1-2)Gal(b1-4)[Fuc(a1-3)]GlcNAc
Procedure, shortened: as §1

[4] = target: Fuc(a1-2)Gal(b1-4)[Fuc(a1-3)]GlcNAc(b1-2)Man(a1-3)[Fuc(a1-2)Gal(b1-4)[Fuc(a1-3)]GlcNAc(b1-2)Man(a1-6)]Man(b1-4)GlcNAc(b1-4)GlcNAc
Procedure, shortened: as §1

[5] = target: Fuc(a1-2)Gal(b1-4)[Fuc(a1-3)]GlcNAc(b1-2)Man(a1-3)[Fuc(a1-2)Gal(b1-4)[Fuc(a1-3)]GlcNAc(b1-2)Man(a1-6)]Man(b1-4)GlcNAc(b1-4)[Fuc(a1-6)]GlcNAc
Procedure, shortened: as §1

[6] = target: Fuc(a1-2)Gal(b1-4)[Fuc(a1-3)]GlcNAc(b1-2)[Fuc(a1-2)Gal(b1-4)[Fuc(a1-3)]GlcNAc(b1-4)]Man(a1-3)[Fuc(a1-2)Gal(b1-4)[Fuc(a1-3)]GlcNAc(b1-2)Man(a1-6)]Man(b1-4)GlcNAc(b1-4)GlcNAc
Procedure, shortened: as §1

[7] = target: Fuc(a1-2)Gal(b1-4)[Fuc(a1-3)]GlcNAc(b1-3)Gal(b1-4)[Fuc(a1-3)]GlcNAc
Procedure, shortened: as §1

[8] = target: Fuc(a1-2)Gal(b1-4)[Fuc(a1-3)]GlcNAc(b1-3)Gal(b1-4)[Fuc(a1-3)]GlcNAc(b1-3)Gal(b1-4)[Fuc(a1-3)]GlcNAc
Procedure, shortened: as §1

[9] = target: Fuc(a1-2)Gal(b1-4)[Fuc(a1-3)]GlcNAc(b1-3)GalNAc
Procedure, shortened: as §1

[10] = target: Fuc(a1-2)Gal(b1-4)[Fuc(a1-3)]GlcNAc(b1-3)[Neu5Ac(a2-6)Gal(b1-4)GlcNAc(b1-6)]Gal(b1-4)Glc
Procedure, shortened: as §1

[11] = target: Fuc(a1-2)Gal3S(b1-4)GlcNAc
Procedure, shortened: as §1

[12] = target: Fuc(a1-2)Gal6S(b1-3)GlcNAc
Procedure, shortened: as §1

[13] = target: Fuc(a1-2)Gal6S(b1-3)GlcNAc6S
Procedure, shortened: as §1

Fuc(a1-2)Gal6S(b1-4)Glc = target: Fuc(a1-2)Gal6S(b1-4)Glc
Procedure, shortened: as §1

[14] = target: Fuc(a1-2)Gal6S(b1-4)Glc6S
Procedure, shortened: as §1

[15] = target: Fuc(a1-2)Gal6S(b1-4)GlcNAc
Procedure, shortened: as §1

Fuc(a1-2)GlcNAc = target: Fuc(a1-2)GlcNAc
Procedure, shortened: as §1

Fuc(a1-2)[Gal(a1-3)]Gal = target: Fuc(a1-2)[Gal(a1-3)]Gal
Procedure, shortened: as §1

[16] = target: Fuc(a1-2)[Gal(a1-3)]Gal(b1-3)GalNAc
Procedure, shortened: as §1

[17] = target: Fuc(a1-2)[Gal(a1-3)]Gal(b1-3)GalNAc(b1-3)Gal(a1-4)Gal(b1-4)Glc
Procedure, shortened: as §1

[18] = target: Fuc(a1-2)[Gal(a1-3)]Gal(b1-3)GlcNAc
Procedure, shortened: as §1

[19] = target: Fuc(a1-2)[Gal(a1-3)]Gal(b1-3)GlcNAc(b1-2)Man(a1-3)[Fuc(a1-2)[Gal(a1-3)]Gal(b1-3)GlcNAc(b1-2)Man(a1-6)]Man(b1-4)GlcNAc(b1-4)GlcNAc
Procedure, shortened: as §1

[20] = target: Fuc(a1-2)[Gal(a1-3)]Gal(b1-3)GlcNAc(b1-2)Man(a1-3)[Fuc(a1-2)[Gal(a1-3)]Gal(b1-3)GlcNAc(b1-2)Man(a1-6)]Man(b1-4)GlcNAc(b1-4)[Fuc(a1-6)]GlcNAc
Procedure, shortened: as §1

[21] = target: Fuc(a1-2)[Gal(a1-3)]Gal(b1-3)GlcNAc(b1-3)GalNAc
Procedure, shortened: as §1

[22] = target: Fuc(a1-2)[Gal(a1-3)]Gal(b1-3)GlcNAc(b1-6)GalNAc
Procedure, shortened: as §1

[23] = target: Fuc(a1-2)[Gal(a1-3)]Gal(b1-4)Glc
Procedure, shortened: as §1

[24] = target: Fuc(a1-2)[Gal(a1-3)]Gal(b1-4)GlcNAc
Procedure, shortened: as §1

[25] = target: Fuc(a1-2)[Gal(a1-3)]Gal(b1-4)GlcNAc(b1-2)Man
Procedure, shortened: as §1

[26] = target: Fuc(a1-2)[Gal(a1-3)]Gal(b1-4)GlcNAc(b1-2)Man(a1-3)[Fuc(a1-2)[Gal(a1-3)]Gal(b1-4)GlcNAc(b1-2)Man(a1-6)]Man(b1-4)GlcNAc(b1-4)GlcNAc
Procedure, shortened: as §1

[27] = target: Fuc(a1-2)[Gal(a1-3)]Gal(b1-4)GlcNAc(b1-2)Man(a1-3)[Fuc(a1-2)[Gal(a1-3)]Gal(b1-4)GlcNAc(b1-2)Man(a1-6)]Man(b1-4)GlcNAc(b1-4)[Fuc(a1-6)]GlcNAc
Procedure, shortened: as §1

[28] = target: Fuc(a1-2)[Gal(a1-3)]Gal(b1-4)GlcNAc(b1-3)GalNAc
Procedure, shortened: as §1

[29] = target: Fuc(a1-2)[Gal(a1-3)]Gal(b1-4)GlcNAc(b1-3)[Fuc(a1-2)[Gal(a1-3)]Gal(b1-4)GlcNAc(b1-6)]GalNAc
Procedure, shortened: as §1

[30] = target: Fuc(a1-2)[Gal(a1-3)]Gal(b1-4)GlcNAc(b1-6)GalNAc
Procedure, shortened: as §1

[31] = target: Fuc(a1-2)[Gal(a1-3)]Gal(b1-4)[Fuc(a1-3)]Glc
Procedure, shortened: as §1

[32] = target: Fuc(a1-2)[Gal(a1-3)]Gal(b1-4)[Fuc(a1-3)]GlcNAc
Procedure, shortened: as §1

[33] = target: Fuc(a1-2)[Gal(a1-3)]Gal(b1-4)[Fuc(a1-3)]GlcNAc(b1-3)GalNAc
Procedure, shortened: as §1

[34] = target: Fuc(a1-2)[Gal(a1-4)]Gal(b1-4)GlcNAc
Procedure, shortened: as §1

[35] = target: Fuc(a1-2)[GalNAc(a1-3)]Gal
Procedure, shortened: as §1

B1: CRT-1 (Homo sapiens), P27797 (protein)
chain: MLLSVPLLLGLLGLAVAEPAVYFKEQFLDGDGWTSRWIESKHKSDFGKFVLSSGKFYGDEEKDKGLQTSQDARFYALSASFEPFSNKGQTLVVQFTVKHEQNIDCGGGYVKLFPNSLDQTDMHGDSEYNIMFGPDICGPGTKKVHVIFNYKGKNVLINKDIRCKDDEFTHLYTLIVRPDNTYEVKIDNSQVESGSLEDDWDFLPPKKIKDPDASKPEDWDERAKIDDPTDSKPEDWDKPEHIPDPDAKKPEDWDEEMDGEWEPPVIQNPEYKGEWKPRQIDNPDYKGTWIHPEIDNPEYSPDPSIYAYDNFGVLGLDLWQVKSGTIFDNFLITNDEAYAEEFGNETWGVTKAAEKQMKDKQDEEQRLKEEEEDKKRKEEEEAEDKEDDEDKDEDEEDEEDKEEDEEEDVPGQAKDEL
glycan array binding signal (z-score) [1]: -0.299
glycan array binding signal (z-score) [2]: 1.26
glycan array binding signal (z-score) [3]: 0.45
glycan array binding signal (z-score) [4]: 2.15
glycan array binding signal (z-score) [5]: 0.359
glycan array binding signal (z-score) [6]: 0.162
glycan array binding signal (z-score) [7]: 0.514
glycan array binding signal (z-score) [8]: -0.191
glycan array binding signal (z-score) [9]: 0.11
glycan array binding signal (z-score) [10]: -0.212
glycan array binding signal (z-score) [11]: -0.292
glycan array binding signal (z-score) [12]: -0.615
glycan array binding signal (z-score) [13]: 0.305
glycan array binding signal (z-score) (Fuc(a1-2)Gal6S(b1-4)Glc): -0.675
glycan array binding signal (z-score) [14]: -0.576
glycan array binding signal (z-score) [15]: -0.237
glycan array binding signal (z-score) (Fuc(a1-2)GlcNAc): 0.616
glycan array binding signal (z-score) (Fuc(a1-2)[Gal(a1-3)]Gal): -0.136
glycan array binding signal (z-score) [16]: -0.128
glycan array binding signal (z-score) [17]: 0.027
glycan array binding signal (z-score) [18]: -0.481
glycan array binding signal (z-score) [19]: -0.672
glycan array binding signal (z-score) [20]: 0.196
glycan array binding signal (z-score) [21]: -0.073
glycan array binding signal (z-score) [22]: 0.65
glycan array binding signal (z-score) [23]: 0.755
glycan array binding signal (z-score) [24]: -0.547
glycan array binding signal (z-score) [25]: 0.071
glycan array binding signal (z-score) [26]: 0.635
glycan array binding signal (z-score) [27]: -0.254
glycan array binding signal (z-score) [28]: -0.01
glycan array binding signal (z-score) [29]: 1.09
glycan array binding signal (z-score) [30]: -0.462
glycan array binding signal (z-score) [31]: -0.424
glycan array binding signal (z-score) [32]: 0.498
glycan array binding signal (z-score) [33]: -0.289
glycan array binding signal (z-score) [34]: 0.359
glycan array binding signal (z-score) [35]: -0.149

Reference: the supplement of paper PMC8728848
